The text below walks through data of PMC6321117, “Sulfonamide Inhibition Studies of a New β-Carbonic Anhydrase from the Pathogenic Protozoan Entamoeba histolytica” (International Journal of Molecular Sciences, 2018).

The structures appear in SMILES notation.

The test has as its target T1, EhiCA (β-carbonic anhydrase) (Entamoeba histolytica, UniProt C4LXK3).
T1 sequence (C4LXK3 1-188): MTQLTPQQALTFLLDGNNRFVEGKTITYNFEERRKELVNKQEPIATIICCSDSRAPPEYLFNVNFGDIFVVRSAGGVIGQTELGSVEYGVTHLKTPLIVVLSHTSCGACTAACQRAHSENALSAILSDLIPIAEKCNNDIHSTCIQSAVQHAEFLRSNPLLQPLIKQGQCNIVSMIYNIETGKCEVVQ
Nature of the test: biochemical. The protocol: An Sx.18Mv-R Applied Photophysics (Oxford, UK) stopped-flow instrument has been used to assay the catalytic activity of various CA isozymes for CO2 hydration reaction. […] The uncatalyzed rates were determined in the same manner and subtracted from the total observed rates. Stock solutions of inhibitors (0.1 mM) were prepared in distilled-deionized water, and dilutions up to 1 nM were done thereafter with the assay buffer. Enzyme and inhibitor solutions were pre-incubated together for 15 min before assay, to allow for the formation of the enzyme–inhibitor complex. The inhibition constants were obtained by non-linear least-squares methods using PRISM 3 and the Cheng–Prusoff equation, as reported earlier.

[1] abbreviates: KI EhiCA, β class, stopped-flow CO2 hydrase assay, 3 different assays, errors 5–10%.

Consider `CC(=O)Nc1nnc(S(N)(=O)=O)s1` [AAZ, 5-acetamido-1,3,4-thiadiazole-2-sulfonamide], for which the Ki reads like this: (KI (Acetazolamide) EhiCA, 20 °C, pH 8.3, 20 mM TRIS, 20 mM NaClO4, this work) 509 nM; under setting [1], 509 nM. With `CCN[C@H]1C[C@H](C)S(=O)(=O)c2sc(S(N)(=O)=O)cc21` [DZA, dorzolamide], affinity under setting [1] was put at a Ki of 6440 nM. This lies in the single-digit micromolar range.
